Values from PubChem BioAssay AID743448 (Peter MacCallum Cancer Centre, 2014).
This is a random part of the 106 reagents, under one of the conditions tested. 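Calls are per line and drug panel including etoposide, not vorinostat-specific; gene picks needed hits in two or more extra lines with vorinostat versus etoposide.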 Further read-outs or replicates are left out here.

Purpose: 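Third-round triage of 106 confirmed candidates in four colon lines under two drugs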 (follow-up of hits)
Cells: four human colon cancer cell lines: HCT116-VR (vorinostat-resistant HCT116 derivative), SW480, SW620 and LIM1215
Knock-down reagent: siRNA pool against human genes, 40 nM siRNA pool
Time to read-out: drug added two days after transfection, read one day later
Treatment: vorinostat 2.5 µM on one half of each plate, etoposide 5 µM on the other half
Cell line and drug panel: LIM1215 cells with etoposide
Detection: 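Caspase 3/7 activity by luminescence and live-cell viability by fluorescence, each given as a ratio to mock-transfected wells and as a robust z-score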
Direction: caspase ratio to mock: higher = more caspase activity than mock; viability ratio to mock: higher = more live cells than mock
Active means: 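Hit means caspase ratio to mock at least 1.6, or viability ratio to mock at most 0.75; wells with strong death in the absence of drug get no call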
Calls: active = caspase or viability hit in this panel; inactive = no change, or unhealthy well

| target gene | caspase ratio to mock | viability ratio to mock | activity call |
| --- | --- | --- | --- |
| AMDHD2 (amidohydrolase domain containing 2) | 3.12 | 0.72 | active |
| PSMD13 (proteasome 26S subunit, non-ATPase 13) | 1.27 | 0.94 | inactive |
| POLR2G (RNA polymerase II subunit G) | 2 | 0.98 | active |
| THOC5 (THO complex subunit 5) | 2.58 | 0.8 | active |
| POLR2D (RNA polymerase II subunit D) | 2.85 | 0.82 | inactive |
| TOX4 (TOX high mobility group box family member 4) | 3.62 | 0.94 | inactive |
| PSMA7 (proteasome 20S subunit alpha 7) | 3.08 | 0.97 | inactive |
| SAP130 (Sin3A associated protein 130) | 1.34 | 0.88 | inactive |
| VPS4A (vacuolar protein sorting 4 homolog A) | 3.32 | 0.96 | active |
| CCDC59 (coiled-coil domain containing 59) | 2.7 | 0.82 | active |
| PLAG1 (PLAG1 zinc finger) | 1.47 | 1 | inactive |

Already shown: 2 of the entries above.
| target gene | caspase ratio to mock | viability ratio to mock | activity call |
| --- | --- | --- | --- |
| CCDC59 (coiled-coil domain containing 59) | 2.7 | 0.82 | active |
| PLAG1 (PLAG1 zinc finger) | 1.47 | 1 | inactive |

The list goes on.
| target gene | caspase ratio to mock | viability ratio to mock | activity call |
| --- | --- | --- | --- |
| GNG8 (G protein subunit gamma 8) | 2.86 | 0.78 | inactive |
| EIF2B2 (eukaryotic translation initiation factor 2B subunit beta) | 2.5 | 0.64 | active |
| KIR2DL1 | 1.36 | 1.09 | inactive |
| THAP3 (THAP domain containing 3) | 1.69 | 0.84 | active |
| POLR2I (RNA polymerase II subunit I) | 1.21 | 0.94 | inactive |
| DDX19B (DEAD-box helicase 19B) | 7.05 | 0.88 | inactive |
| AKAP8 (A-kinase anchoring protein 8) | 1.86 | 0.92 | active |
| UTP3 (UTP3 small subunit processome component) | 1.38 | 0.88 | inactive |
| TGM5 (transglutaminase 5) | 1.21 | 1.07 | inactive |
| MSANTD1 (Myb/SANT DNA binding domain containing 1) | 2.15 | 0.86 | active |
| NFYA (nuclear transcription factor Y subunit alpha) | 1.5 | 1.02 | inactive |
| C1orf210 (chromosome 1 open reading frame 210) | 4.7 | 0.88 | inactive |
| TFAP2D (transcription factor AP-2 delta) | 2.47 | 1.34 | active |
